# In PubChem BioAssay AID504834 (National Center for Advancing Translational Sciences (NCATS), 2011):
# In all, about 320,000 compounds went through this assay and about 22,000 (6.9%) were called active. This list was built around the results that the source calls inconclusive (neither active nor inactive); the mix of calls is not that of the screen. The call rests on the fitted dose curve; in most records, active means well fitted inhibition curve with a large enough effect; inconclusive means small, poorly fitted or top-dose-only effect, or another doubt; inactive means no such curve, though single readings can be large or run the other way. Where the call is inconclusive, the potency comes from a doubtful curve fit.
# Experiment: Primary qHTS for delayed death inhibitors of the malarial parasite plastid, 96 hour incubation
# Details: P. falciparum luciferase reporter growth; series mostly up to 28.7 µM
# Procedure, shortened: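 Delayed-death screen, second-generation endpoint: infected erythrocytes, 2% hematocrit, 0.05% parasitemia final; 96 hours at 37 C, 5% CO2; luciferase detection reagent; luminescence decrease equals reduced growth.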
# Potency means the concentration at half of the fitted maximal effect.
row,Structure (SMILES),Potency
1,Cc1cc(C)n(C(=O)Cn2nc(C(F)F)cc2C)n1,inactive
2,Cc1ccc(Oc2nccc(-c3ccc(Cl)cc3)n2)cc1,inactive
3,COc1ccccc1NC(=O)c1ccc(COc2ccccc2Br)o1,"inconclusive: 4.65 µM [inhibitor, partial curve, poor fit]"
4,Cc1cccc(N2C(=O)c3ccc(C(=O)Nc4cccc(C(=O)O)c4)cc3C2=O)c1,active: 13.1 µM
5,O=C(NCc1ccc2c(c1)OCO2)c1c[nH]c2ccc(S(=O)(=O)N3CCOCC3)cc2c1=O,"inconclusive: 14.7 µM [inhibitor, single point]"
6,Cc1ccc(-c2nnn(CC(=O)N(c3ccccc3F)C(C(=O)NCC3CCCO3)c3c[nH]c4ccccc34)n2)cc1 (stereo not drawn),active: 11.7 µM
7,O=c1c(CO)cc(CO)cc(CO)c1O,inactive
8,CN1CCN(c2ccc(Cl)cc2NC(=O)c2ccc(S(=O)(=O)N(C)C)cc2)CC1,active: 3.29 µM
9,O=C(CSc1nc(-c2ccco2)cc(C(F)(F)F)n1)Nc1ccc(C(=O)N2CCOCC2)cc1,inactive
10,CCN(CC(=O)NCc1cccs1)C(=O)COc1ccc(C(N)=O)cc1,"inconclusive: 9.28 µM [inhibitor, single point]"
11,CC1CN(C(=O)c2ccc(Br)c(S(=O)(=O)N3CCOCC3)c2)CC(C)O1 (stereo not drawn),inactive
12,C=CCc1cc(/C=N\NC(=O)CSc2nnc(CCCc3ccc(OC)c(C)c3)o2)cc(OC)c1O,active: 2.94 µM
13,C#CCOCCOCCOCCNc1nc(N2CCN(C(=O)[C@H](Cc3cc4ccccc4[nH]3)n3cc([C@@H](N)C(C)CC)nn3)CC2)nc(N2CCN(C(=O)[C@H](Cc3cc4ccccc4[nH]3)n3cc([C@@H](N)CC(C)C)nn3)CC2)n1 (stereo partly drawn),"inconclusive: 9.28 µM [inhibitor, single point]"
14,COc1ccc(-c2cc(-c3ccc(C)cc3)n[nH]2)c(O)c1,inactive
15,Cc1nc2ccccc2n1CC(=O)NC(C)C1CC2CCC1C2 (stereo not drawn),"inconclusive: 4.65 µM [inhibitor, partial curve]"
16,CCN1CCN(c2ccc(S(=O)(=O)N3CCCCC3)cc2NC(=O)c2cccc(NC(C)=O)c2)CC1,"inconclusive: 2.08 µM [inhibitor, full curve]"
17,CCOc1cc(CNn2cnnc2)cc(Br)c1OCC(=O)NC(C)(C)C,"inconclusive: 14.7 µM [inhibitor, partial curve, poor fit]"
18,COc1cccc(CNC(=O)CSc2nc3c(oc4ccccc43)c(=O)n2CC2CCCO2)c1 (stereo not drawn),inactive
19,O=C(CSc1nnc(CNC(=O)c2ccc(F)cc2)o1)Nc1ccc2c(c1)OCO2,inactive
20,CCOC(=O)CNC(=O)C1c2ccccc2Oc2ccccc21,"inconclusive: 4.15 µM [inhibitor, single point]"
21,CC1CCc2c(sc(NC(=O)c3ccc(N4C(=O)CCC4=O)cc3)c2C(N)=O)C1 (stereo not drawn),"inconclusive: 18.5 µM [inhibitor, single point]"
22,Cc1ccc(CC(=O)N2CCN(Cc3ccccc3)CC2)cc1,"inconclusive: 18.5 µM [inhibitor, single point]"
23,O=C(Nc1ccc(Cc2ccc(NC(=O)C3CC3)c(O)c2)cc1O)C1CC1,active: 10.4 µM
24,Cc1[nH]n(-c2ccccc2)c(=O)c1N=Nc1ccc2c(c1)OCCO2,inactive
25,COc1ccc([N+](=O)[O-])cc1/C=N/NC(=O)c1nonc1N,inactive

row,Structure (SMILES),Potency
1,Cc1cc(N2CCN(C(=O)c3ccco3)CC2)n2nc(C)c(-c3ccccc3)c2n1,inactive
2,COc1ccc(CCNC(=O)C(=O)NCC2CCCN2S(=O)(=O)c2ccccc2)cc1 (stereo not drawn),active: 11.7 µM
3,CN1C(=O)c2cccc3c(S(=O)(=O)NCc4ccco4)ccc1c23,"inconclusive: 20.8 µM [inhibitor, single point]"
4,O=c1cc(-c2ccccc2)nc(SCCOc2ccccc2Cl)[nH]1,active: 7.38 µM
5,CCOc1cc(/C=N/OC(C)=O)ccc1OCc1ccccc1,active: 10.4 µM
6,Cc1ccc(S(=O)(=O)N(C)C)cc1NC(=O)C(C)OC(=O)/C=C/c1cccs1 (stereo not drawn),inactive
7,Cc1c(Cl)cccc1NC(=S)N(Cc1cccnc1)Cc1ccccc1Cl,inactive
8,CSc1sc(C(=O)N2CCCCC2)c(-c2cccs2)c1C#N,inactive
9,Cc1ccc(S(=O)(=O)N2CCC(=O)N(C(COCc3ccccc3)Cc3ccccc3)CC2)cc1 (stereo not drawn),active: 10.4 µM
10,C=CCn1c(COc2ccccc2F)nnc1SCCN1C(=O)c2ccccc2C1=O,inactive
11,CC(=O)NC(CCS(C)(=O)=O)C(=O)Nc1ccc(Oc2ccccc2)cc1 (stereo not drawn),inactive
12,CC1(C)N=C(c2ccccc2)C(=O)N1,"inconclusive: 8.28 µM [inhibitor, partial curve, poor fit]"
13,O=C(NC1CCCCC1)N1CCN(c2ccc(Cl)cc2)CC1,active: 1.85 µM
14,O=C(CCCCCNC(=O)c1ccccc1Br)N=Nc1c(O)[nH]c2ccccc12,"inconclusive: 2.62 µM [inhibitor, full curve, poor fit]"
15,CN1CCN(C(=O)c2ccccc2NC(=O)Cc2ccccc2)CC1,"inconclusive: 3.29 µM [inhibitor, single point]"
16,CSc1cccc(N2CC(C(=O)NCCC3=CCCCC3)CC2=O)c1 (stereo not drawn),inactive
17,Cc1ccc(NC(=O)c2cc(-c3cc(Cl)ccc3O)n[nH]2)cc1C,active: 1.65 µM
18,O=C(N=C1SC2CS(=O)(=O)CC2N1c1ccc(Cl)c(Cl)c1)C1CCCO1 (stereo not drawn),inactive
19,CC(C)CC(=O)NCC(C)NC(=O)CC(C)C (stereo not drawn),active: 14.7 µM
20,Cc1cccc(-c2noc(CNC(=O)c3ccoc3C)n2)c1,inactive
21,CCc1ccc(N(CC(=O)NCc2ccc(OC)cc2)C(=O)CCC(=O)Nc2ccccn2)cc1,"inconclusive: 8.28 µM [inhibitor, single point]"
22,CCOC(=O)c1cc(NC(=O)CC(C)(C)CC(=O)O)ccc1N1CCCCC1,"inconclusive: 18.5 µM [inhibitor, single point]"
23,O=C(O)c1ccc(N2C(=O)CC(N3CCN(c4ccc(Cl)cc4)CC3)C2=O)cc1 (stereo not drawn),"inconclusive: 7.38 µM [inhibitor, partial curve, poor fit]"
24,CCOC(=O)C(C)CC(C)C(=O)N1CCOCCOCCN(C(=O)C(C)CC(C)C(=O)OCC)CCOCC1 (stereo not drawn),inactive
25,O=C(COc1ccc(S(=O)(=O)N2CCOCC2)cc1)NC1CCCCC1,active: 11.7 µM

# Laid out differently: six of the compounds above
row | Structure (SMILES) | Potency
8 | CSc1sc(C(=O)N2CCCCC2)c(-c2cccs2)c1C#N | inactive
9 | Cc1ccc(S(=O)(=O)N2CCC(=O)N(C(COCc3ccccc3)Cc3ccccc3)CC2)cc1 (stereo not drawn) | active: 10.4 µM
10 | C=CCn1c(COc2ccccc2F)nnc1SCCN1C(=O)c2ccccc2C1=O | inactive
11 | CC(=O)NC(CCS(C)(=O)=O)C(=O)Nc1ccc(Oc2ccccc2)cc1 (stereo not drawn) | inactive
12 | CC1(C)N=C(c2ccccc2)C(=O)N1 | inconclusive: 8.28 µM [inhibitor, partial curve, poor fit]
13 | O=C(NC1CCCCC1)N1CCN(c2ccc(Cl)cc2)CC1 | active: 1.85 µM

# (more compounds)

row,Structure (SMILES),Potency
1,CN(CC(=O)NCc1ccncc1)S(=O)(=O)c1ccc(Br)cc1,inactive
2,CCn1cc(C(=O)N2CCc3ccccc32)c(=O)c2cc(S(=O)(=O)N(C)C3CCCCC3)ccc21,"inconclusive: 3.29 µM [inhibitor, full curve]"
3,Cn1c(=O)c2c(nc(NCCOc3ccc(C(C)(C)C)cc3)n2C)n(C)c1=O,"inconclusive: 1.47 µM [inhibitor, full curve]"
4,O=C1C2CCCN2C(c2ccccc2)N1c1ccc(Cl)cc1 (stereo not drawn),"inconclusive: 10.4 µM [inhibitor, single point]"
5,Cc1ccc(C(=O)CN2/C(=C(\O)c3ccccc3)C(=O)c3ccccc3S2(=O)=O)c(C)c1,"inconclusive: 0.037 µM [inhibitor, full curve, poor fit]"
6,Clc1ccc(C2(Cn3cncn3)OCCO2)c(Cl)c1,"inconclusive: 9.53 µM [inhibitor, partial curve]"
7,CCOc1cc(C(C(=O)NCC2CCCO2)N(C(=O)Cn2nnc3ccccc32)c2ccc(NC(C)=O)cc2)ccc1O (stereo not drawn),inactive
8,COc1ccc(-c2cc(C)no2)cc1S(=O)(=O)N(C)c1cccc(C)c1,"inconclusive: 6.57 µM [inhibitor, partial curve, poor fit]"
9,CC1(C)CC(=O)c2cc(NC(=O)c3ccc(F)cc3)c(=O)oc2C1,inactive
10,c1ccc(Nc2n[nH]nc2-c2ccccc2)cc1,"inconclusive: 0.233 µM [inhibitor, partial curve, poor fit]"
11,Cc1ccc(/C=C\c2nccc3c2[nH]c2ccccc23)cc1,"inconclusive: 1.85 µM [inhibitor, full curve, poor fit]"
12,Cc1ccc(CC(=O)NCc2ccc(Cl)cc2)cc1,inactive
13,Cn1c2ccccc2c(=O)c2ccc(F)cc21,"inconclusive: 18.5 µM [inhibitor, single point]"
14,CC(=O)NCCn1c(SCc2ccccc2C)nc2ccccc2c1=O,"inconclusive: 10.4 µM [inhibitor, partial curve]"
15,O=C(COC(=O)c1ccc(S(=O)(=O)NCc2ccco2)cc1)c1ccccc1,inactive
16,Cn1c(=O)c2c(ncn2CC(O)CNc2cccc(Cl)c2)n(C)c1=O (stereo not drawn),inactive
17,Cc1nc(CN2CCN(S(=O)(=O)c3c(Cl)cc(Br)cc3Cl)CC2)cs1,"inconclusive: 11.7 µM [inhibitor, single point]"
18,C=CCNC(=S)N1CCN(c2ncc(C(F)(F)F)cc2Cl)CC1,"inconclusive: 18.5 µM [inhibitor, single point]"
19,CCC1SC2=NC(C)=C(C(=O)OCC(C)C)C(/C=C/c3ccccc3OC)N2C1=O (stereo not drawn),active: 11.7 µM
20,O=C1S/C(=C\c2ccc(N3CCOCC3)o2)C(=O)N1Cc1ccc(F)cc1,"inconclusive: 0.0329 µM [inhibitor, full curve, poor fit]"
21,COc1ccc(S(=O)(=O)NCC2CCCN(Cc3ccc(OC)cc3F)C2)cc1 (stereo not drawn),"inconclusive: 18.5 µM [inhibitor, single point]"
22,Cc1ccc(C)c(S(=O)(=O)N2CCCC2CNC(=O)C(=O)NCc2ccccc2C)c1 (stereo not drawn),"inconclusive: 11.7 µM [inhibitor, partial curve, poor fit]"
23,CCN(CC)C(=O)Cn1cc(C(=O)C(=O)NCCc2ccc(S(N)(=O)=O)cc2)c2ccccc21,"inconclusive: 0.0657 µM [inhibitor, full curve, poor fit]"
